# Where “and” joins values, the source holds several entries; their conditions need not be identical. Equal entries are not always repeated. The campaign covered roughly 410,000 compounds. About 18,000 (4.4%) were called active. The shares of active, inactive and inconclusive entries below differ from those in the screen. Cut-off read from the data, not from the text of the source: active = activity change below about -60%; inconclusive = no clear call, values can overlap the other calls; inactive = above about -39%.
# Test: qHTS Assay for inhibitors of the human cytomegalovirus (HCMV)
# Details: HFF cells, HCMV-luciferase reporter, 72 h; at 57.5 µM; active compounds read low
# Summary of the method: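 Two-dose cell screen: HFF monolayers treated with compounds and infected with luciferase-expressing HCMV at 1 PFU/cell, 72 h at 37C, then lysed for luciferase measurement.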
# % is set by controls: 0 for no effect and ±100 for the full control effect.
row,SMILES,"activity change, negative = inhibition"
1,O=C(CSc1nc2ccccc2[nH]1)N1c2ccccc2Sc2ccccc21,inconclusive: -49.2%
2,Cc1ccc(C)c(N2CCN(C(=O)CCNS(=O)(=O)c3ccc4c(c3)oc(=O)n4C)CC2)c1,inconclusive: -52.9%
3,Cc1csc(NC(=O)c2ccccc2[N+](=O)[O-])n1,inactive: 33.2%
4,COCCNc1nc(-c2cc(-c3ccccc3)on2)cc(C(C)C)n1,active: -63.2%
5,CCCSc1nc(-n2ncc(C#N)c2N)c2c3c(sc2n1)CCC(C)C3 (stereo not given),inactive: -6.57%
6,Cn1cc(CN2CCC(C(=O)N3CCCCC3)CC2)c(-c2ccccc2F)n1,inactive: 3.57%
7,COc1ccc(C(=O)N(CCCO)Cc2cc3c(C)ccc(C)c3[nH]c2=O)cc1OC,inconclusive: -46.5%
8,O=C(CN1C(=O)NC2(CCc3ccccc32)C1=O)c1ccccc1 (stereo not given),inactive: 13.4%
9,NC(=O)c1cc(S(=O)(=O)N2CCN(c3ccc([N+](=O)[O-])cc3)CC2)cs1,inactive: -35%
10,COc1cccc(NC(=O)C(Nc2ccccc2)c2ccccc2F)c1 (stereo not given),active: -67.2%
11,Cc1ccc(-n2c(=O)c3cccnc3n2CC(=O)Nc2ccc(C)cc2Cl)cc1,inactive: 13.2%
12,Cc1cc(=O)[nH]c(SCC(=O)N2CCN(S(=O)(=O)c3ccccc3)C2)n1,inactive: -5.01%
13,Cc1cccc(C)c1NC(=O)CCCSc1nnc(-c2ccc(F)cc2)n1-c1ccccc1,active: -68.7%
14,CCC(CO)NCc1ccc(Br)cc1 (stereo not given),inconclusive: -48.1%
15,Cc1cccc2c(C(=O)N3CCN(c4ccccn4)CC3)cc(-c3cccc(Br)c3)nc12,inconclusive: -47.3%
16,NC(=O)C1CC(=O)N(Cc2ccc3c(c2)OCO3)C(=Nc2ccccc2)S1 (stereo not given),inconclusive: -43.3%
17,COc1cc(SC)ccc1C(=O)N1CCN(c2ccc(O)cc2)CC1,inactive: -13.7%
18,O=C(N/N=C/c1cccc2ccccc12)c1cccc(F)c1,inconclusive: -53.8%
19,CCCNC(=O)C1(C)CCCN(C(=O)c2sccc2C)C1 (stereo not given),inconclusive: -55%
20,O=C(/C=C/c1ccccc1Cl)Nc1ccc(-c2nnc3n2CCCCC3)cc1,inactive: -13%
21,CC(C)n1c(CN2CCN(Cc3ccccc3)CC2)nc2ccccc21,inconclusive: -42.5%
22,O=C(NC1CCS(=O)(=O)C1)c1ccc(S(=O)(=O)N2CCCC2)cc1 (stereo not given),inconclusive: -44%
23,COCCN1C[C@@H](CO)O[C@@H](n2cnc3c(NC4CC4)ncnc32)C1,inconclusive: -59.5%
24,COC(=O)c1c(-c2cccc3ccccc23)csc1NC(=O)Cc1ccc(OC)c(OC)c1,inconclusive: -41.8%
25,N#C/C(=C\c1ccc(OCc2ccc(F)cc2)cc1)C(=O)Nc1cccc(C(=O)O)c1,active: -75.3%
26,c1ccc(CN(Cc2cccs2)C(c2cccs2)c2nnnn2C2CCCC2)cc1 (stereo not given),inactive: -32.2%
27,O=C(CCN1C(=O)c2cccc3cccc(c23)C1=O)NCC1CCCO1 (stereo not given),inconclusive: -45.7%
28,O=C(Nc1ccccc1C(=O)N1CCCC1)c1cccc(S(=O)(=O)N2CCCCCC2)c1,inconclusive: -44.2%

row,SMILES,"activity change, negative = inhibition"
1,Cc1ccsc1/C=C1\C(=O)NC(=S)N(C)C1=O,active: -102%
2,CC(=O)N1CCSc2ccc(S(=O)(=O)NCCc3cccc(C)c3)cc21,inconclusive: -44.1%
3,NC(=O)COC(=O)CC12CC3CC(CC(C3)C1)C2,inconclusive: -46.8%
4,CCOC(=O)N1CCN(C(=S)NC2CCCC2)CC1,inconclusive: -45.1%
5,COC(=O)C1CCN(C(=O)COc2ccc(S(=O)(=O)N3CCOCC3)cc2Cl)CC1,inconclusive: -52.1%
6,CN(CC(=O)Nc1ccc(F)c(F)c1F)C(=O)Cn1cnc2c1c(=O)n(C)c(=O)n2C,inconclusive: -44.6%
7,O=C(Nc1ccccc1)C1=C[C@@H](c2ccc(Br)cc2)C[C@@H](OCCCCO)O1,inactive: 42.1%
8,O=C1c2ccccc2C(=O)N1CCCCSc1nc2ccccc2c(=O)n1CCCN1CCOCC1,active: -104%
9,COc1ccc(C(C)C)cc1S(=O)(=O)n1ccnc1C,active: -103%
10,CC(C)c1ccc(S(=O)(=O)c2cn(CC(=O)Nc3ccc(F)cc3)c3ccccc3c2=O)cc1,active: -107%
11,COc1cc(NS(=O)(=O)c2ccc(N/C=C(\C#N)c3nc4cc(Cl)ccc4o3)cc2)nc(OC)n1,active: -85.8%
12,CC(=O)Nc1ccc(Nc2c3ccccc3nc3ccccc23)cc1,active: -99.6%
13,CC12CC3CC(C)(C1)CC(N)(C3)C2,inconclusive: -45.8% and inconclusive: -43.2%
14,Brc1ccc(-c2cn3c(n2)SCC3)cc1,inconclusive: -43.8%
15,O=C(Nc1ccccc1)c1cc(C2COCCN2C(=O)c2cccs2)on1 (stereo not given),active: -84.9%
16,CCc1ccc(NC(=O)c2sc3nc(C)nc(N4CCN(c5ccccn5)CC4)c3c2C)cc1,inconclusive: -49.7%
17,Cc1ccc(N(C(=O)CNC(=O)c2ccco2)C(C(=O)NC2CCCC2)c2cccnc2)cc1 (stereo not given),inconclusive: -41.2%
18,CC(=O)Nc1ccc2nc(NS(=O)(=O)c3ccc(C)cc3)sc2c1,inconclusive: -50.2%
19,CC(=O)Oc1ccc(C(=O)O)cc1OC(C)=O,inactive: 22.6%
20,Cc1c(NC(=O)/C(=C/c2cccs2)c2cccs2)c(=O)n(-c2ccccc2)n1C,active: -102%
21,COc1ccc(S(=O)(=O)Nc2cccc(-c3ccc(N4CCCCCC4)nn3)c2)cc1F,inactive: 17.7%
22,CN1CCN(CCCNC(=O)c2ccc(/C=C3/Sc4ccccc4N(Cc4cccc(Cl)c4)C3=O)cc2)CC1,inconclusive: 0%
23,O=C(Nc1cccc(S(=O)(=O)C(F)F)c1)c1ccc(S(=O)(=O)N2CCCCC2)cc1,inconclusive: -47.8%
24,COc1ccccc1CNc1ncnc2c1c(-c1ccccc1)cn2-c1ccc(Br)cc1,inconclusive: -52.1%
25,COc1ccc(S(=O)(=O)Nc2c(C)c(C)cc3c2ncn3C)cc1,inconclusive: -48.7%
26,CC(CC(=O)Nc1ccccc1)NCCCN1CCCC1=O (stereo not given),inconclusive: -48.1%
27,COc1ccc([C@H]2CC(=O)C[C@@H](CCn3cccn3)O2)cc1,inactive: -16.8%

# Part of the list above in order of molecular weight, rising:
row,SMILES,"activity change, negative = inhibition"
19,CC(=O)Oc1ccc(C(=O)O)cc1OC(C)=O,inactive: 22.6%
12,CC(=O)Nc1ccc(Nc2c3ccccc3nc3ccccc23)cc1,active: -99.6%
25,COc1ccc(S(=O)(=O)Nc2c(C)c(C)cc3c2ncn3C)cc1,inconclusive: -48.7%
